Patent US11472855, “RNA-binding protein” (Panitch Schwarze Belisario & Nadel LLP)
The comparison behind a weaker result is the experiment's own reference, which may not be listed here. For part of these data: Protein sequences can lack the tags named with them.

Columns and labels:
Experiment in all cases: EMSA
[1] = system: T1, hPUF_MT(1-2-5-6-5-6-5_ILQ-8) last R5 C-terminus changed to ILQ; conditions: weaker than WT; purified recombinant protein; label: Alexa680 at 5' and 3'; variant of OTS-1511
T1 sequence: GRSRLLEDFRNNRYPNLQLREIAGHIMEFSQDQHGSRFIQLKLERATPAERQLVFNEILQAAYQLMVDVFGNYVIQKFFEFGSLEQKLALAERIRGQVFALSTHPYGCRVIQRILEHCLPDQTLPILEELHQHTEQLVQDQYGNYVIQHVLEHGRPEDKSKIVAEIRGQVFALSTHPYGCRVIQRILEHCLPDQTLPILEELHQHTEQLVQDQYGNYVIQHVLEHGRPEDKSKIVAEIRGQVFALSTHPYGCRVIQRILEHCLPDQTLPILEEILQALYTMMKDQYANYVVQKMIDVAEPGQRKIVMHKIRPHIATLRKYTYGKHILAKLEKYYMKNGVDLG

hPUF_MT(R7→R5) = system: T2, hPUF_MT(R7→R5); conditions: significantly weaker than WT; purified recombinant protein; label: Alexa680 at 5' and 3'; variant of OTS-1511
T2 sequence: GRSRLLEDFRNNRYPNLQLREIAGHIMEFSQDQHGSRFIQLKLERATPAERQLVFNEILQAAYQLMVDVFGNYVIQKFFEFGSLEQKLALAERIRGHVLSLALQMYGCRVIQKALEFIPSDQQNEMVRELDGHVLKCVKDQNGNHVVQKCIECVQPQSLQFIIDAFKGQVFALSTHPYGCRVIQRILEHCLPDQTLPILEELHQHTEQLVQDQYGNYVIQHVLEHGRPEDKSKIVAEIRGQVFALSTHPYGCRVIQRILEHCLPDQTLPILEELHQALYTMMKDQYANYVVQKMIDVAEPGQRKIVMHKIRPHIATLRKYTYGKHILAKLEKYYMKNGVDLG

[2] = system: T3, hPUF_MT(1-2-5-6-5-6-5-6_IRP) last R6 C-terminus changed to IRP; conditions: weaker than WT; purified recombinant protein; label: Alexa680 at 5' and 3'; variant of OTS-1511
T3 sequence: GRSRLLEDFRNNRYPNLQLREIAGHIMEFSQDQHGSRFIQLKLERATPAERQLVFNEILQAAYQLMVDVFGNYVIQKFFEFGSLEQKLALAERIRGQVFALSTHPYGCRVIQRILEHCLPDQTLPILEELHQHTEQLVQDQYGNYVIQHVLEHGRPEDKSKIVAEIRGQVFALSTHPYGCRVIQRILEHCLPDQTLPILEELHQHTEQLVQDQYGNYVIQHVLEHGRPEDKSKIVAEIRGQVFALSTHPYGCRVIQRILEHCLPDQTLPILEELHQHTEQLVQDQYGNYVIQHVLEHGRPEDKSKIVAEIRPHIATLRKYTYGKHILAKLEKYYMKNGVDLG

[3] = system: hPUF_MT(R8_N12S,Q16R, R3→R5, R4→R6) R8 repeat N12S,Q16R; conditions: C>>G; purified recombinant protein; label: Alexa680 at 5' and 3'; variant of OTS-1511
[4] = system: T4, hPUF_MT(R5:A_13R)(R5:A_13Y)2(R6:G_13Y)3; conditions: 13R slightly greater; purified recombinant protein; label: Alexa680 at 5' and 3'
T4 sequence: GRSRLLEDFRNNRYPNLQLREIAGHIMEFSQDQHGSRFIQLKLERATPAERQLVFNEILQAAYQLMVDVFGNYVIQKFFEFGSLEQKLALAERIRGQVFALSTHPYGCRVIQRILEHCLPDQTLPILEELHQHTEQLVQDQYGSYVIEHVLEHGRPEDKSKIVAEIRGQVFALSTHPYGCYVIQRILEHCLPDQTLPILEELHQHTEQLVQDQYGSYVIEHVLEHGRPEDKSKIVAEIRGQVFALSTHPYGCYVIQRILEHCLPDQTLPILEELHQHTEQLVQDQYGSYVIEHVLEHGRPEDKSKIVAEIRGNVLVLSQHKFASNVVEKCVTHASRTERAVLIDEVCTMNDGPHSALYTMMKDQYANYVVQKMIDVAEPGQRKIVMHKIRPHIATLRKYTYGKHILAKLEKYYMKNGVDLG

[5] = system: T5, hPUF_MT(R7_S12C,E16Q, R3→R5, R4→R6) R7 repeat S12C,E16Q; conditions: U>C; purified recombinant protein; label: Alexa680 at 5' and 3'; variant of OTS-1511
T5 sequence: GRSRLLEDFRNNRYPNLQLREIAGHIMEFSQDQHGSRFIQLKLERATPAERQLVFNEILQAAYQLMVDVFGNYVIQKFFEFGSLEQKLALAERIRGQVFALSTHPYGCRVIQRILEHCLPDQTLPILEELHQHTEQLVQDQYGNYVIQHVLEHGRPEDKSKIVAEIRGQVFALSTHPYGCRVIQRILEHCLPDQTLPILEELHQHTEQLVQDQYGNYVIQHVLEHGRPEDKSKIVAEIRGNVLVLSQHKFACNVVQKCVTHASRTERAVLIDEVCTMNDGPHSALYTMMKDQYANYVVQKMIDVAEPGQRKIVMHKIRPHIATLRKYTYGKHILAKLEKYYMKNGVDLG

CCAGAAUUAUAUAUAUUCG [OTS-1754]: binds more weakly [1]; binds more weakly (hPUF_MT(R7→R5)); binds more weakly [2].

CCAGAAUGGUAUAUAUUCG [OTS-2034]: binds more weakly [3].

CCAGAAUUGGAGAGAUAUUCG [OTS-2008]: binds more weakly [4].

CCAGAAUUCUAUAUAUUCG [OTS-2033]: binds more weakly [5].
